Reference: US20210267978A1, “NANOPARTICLE FORMULATIONS OF IKE AND METHODS OF USE THEREOF” (The Trustees of Columbia University in the City of New York, priority 2018, published 2021)
For at least one compound, name, drawing or mass did not settle the structure.

System: SUDHL6 cells
Test: DFO co-treatment, IKE-induced cell death in culture
Type: cell-based

CC(=O)N(O)CCCCCNC(=O)CCC(=O)N(O)CCCCCNC(=O)CCC(=O)N(O)CCCCCN [DFO, deferoxamine]
effect of co-treatment on IKE-induced cell death: inhibited IKE induced cell death
